Experimental data published in patent publication US9521848B2, “Tetrazolinone compound and use therefor” (Sumitomo Chemical Company, Limited, priority 2013, dated 2016).
Some results were stated once for a whole list of compounds, not compound by compound.

How the values were obtained:
Format in all cases: in vivo
[1] = system: barley net blotch fungus (Pyrenophora teres); assay: Barley net blotch control test, foliar spray before inoculation (Test Examples 5, 6); conditions: 500 ppm foliar spray; barley (MIKAMO GOLDEN); inoculated 2 days after spraying
[2] = system: wheat leaf blotch fungus (Septoria tritici); assay: Wheat leaf blotch control test, foliar spray 4 days before inoculation (Test Examples 9, 10); conditions: 500 ppm foliar spray; wheat (APOGEE); inoculated 4 days after spraying
[3] = system: cucumber powdery mildew fungus (Sphaerotheca fuliginea); assay: Cucumber powdery mildew control test, foliar spray before inoculation (Test Examples 12, 13); conditions: 500 ppm foliar spray; cucumber (SAGAMI HANJIRO); 8 days after inoculation

SMILES: Cc1ccc(-c2ccc(OCc3c(C)cccc3-n3nnn(C)c3=O)nc2C)cc1 [Present Compound 6]
- area of lesion spots on the treated plant relative to that on an untreated plant [1]: ≤ 30%
- area of lesion spots on the treated plant relative to that on an untreated plant [2]: ≤ 30%
- area of lesion spots on the treated plant relative to that on an untreated plant [3]: ≤ 30%

SMILES: Cc1ccccc1-c1ccc(OCc2c(C)cccc2-n2nnn(C)c2=O)nc1C [Present Compound 7]
- area of lesion spots on the treated plant relative to that on an untreated plant [1]: ≤ 30%
- area of lesion spots on the treated plant relative to that on an untreated plant [2]: ≤ 30%
- area of lesion spots on the treated plant relative to that on an untreated plant [3]: ≤ 30%

SMILES: Cc1cccc(-n2nnn(C)c2=O)c1COc1ccc(-c2ccccc2C#N)c(C)n1 [Present Compound 8]
- area of lesion spots on the treated plant relative to that on an untreated plant [1]: ≤ 30%
- area of lesion spots on the treated plant relative to that on an untreated plant [2]: ≤ 30%
- area of lesion spots on the treated plant relative to that on an untreated plant [3]: ≤ 30%

SMILES: COc1cccc(-c2ccc(OCc3c(C)cccc3-n3nnn(C)c3=O)nc2C)c1 [Present Compound 9]
- area of lesion spots on the treated plant relative to that on an untreated plant [3]: ≤ 30%

SMILES: Cc1cccc(-n2nnn(C)c2=O)c1COc1ccc(-c2cccc(C#N)c2)c(C)n1 [Present Compound 10]
- area of lesion spots on the treated plant relative to that on an untreated plant [1]: ≤ 30%
- area of lesion spots on the treated plant relative to that on an untreated plant [2]: ≤ 30%
- area of lesion spots on the treated plant relative to that on an untreated plant [3]: ≤ 30%

SMILES: Cc1cccc(-n2nnn(C)c2=O)c1COc1ccc(-c2ccc(Cl)cc2)c(C)n1 [Present Compound 11]
- area of lesion spots on the treated plant relative to that on an untreated plant [1]: ≤ 30%
- area of lesion spots on the treated plant relative to that on an untreated plant [2]: ≤ 30%
- area of lesion spots on the treated plant relative to that on an untreated plant [3]: ≤ 30%

SMILES: Cc1cccc(-n2nnn(C)c2=O)c1COc1ccc(-c2ccccc2C(F)(F)F)c(C)n1 [Present Compound 12]
- area of lesion spots on the treated plant relative to that on an untreated plant [1]: ≤ 30%
- area of lesion spots on the treated plant relative to that on an untreated plant [2]: ≤ 30%
- area of lesion spots on the treated plant relative to that on an untreated plant [3]: ≤ 30%

SMILES: Cc1cccc(-n2nnn(C)c2=O)c1COc1ccc(-c2ccc(F)cc2)c(C)n1 [Present Compound 13]
- area of lesion spots on the treated plant relative to that on an untreated plant [1]: ≤ 30%
- area of lesion spots on the treated plant relative to that on an untreated plant [2]: ≤ 30%
- area of lesion spots on the treated plant relative to that on an untreated plant [3]: ≤ 30%

SMILES: CCc1cccc(-n2nnn(C)c2=O)c1COc1ccc(-c2ccccc2)c(C)n1 [Present Compound 14, 1-[2-(5-phenyl-6-methyl-pyridin-2-yloxymethyl)-3-ethylphenyl]-4-methyl-1,4-dihydrotetrazol-5-one]
- area of lesion spots on the treated plant relative to that on an untreated plant [1]: ≤ 30%
- area of lesion spots on the treated plant relative to that on an untreated plant [2]: ≤ 30%
- area of lesion spots on the treated plant relative to that on an untreated plant [3]: ≤ 30%

SMILES: CCc1cccc(-n2nnn(C)c2=O)c1COc1ccc(-c2ccc(OC)cc2)c(C)n1 [Present Compound 15]
- area of lesion spots on the treated plant relative to that on an untreated plant [1]: ≤ 30%
- area of lesion spots on the treated plant relative to that on an untreated plant [2]: ≤ 30%
- area of lesion spots on the treated plant relative to that on an untreated plant [3]: ≤ 30%

SMILES: CCc1cccc(-n2nnn(C)c2=O)c1COc1ccc(-c2ccccc2C#N)c(C)n1 [Present Compound 16]
- area of lesion spots on the treated plant relative to that on an untreated plant [1]: ≤ 30%
- area of lesion spots on the treated plant relative to that on an untreated plant [2]: ≤ 30%
- area of lesion spots on the treated plant relative to that on an untreated plant [3]: ≤ 30%

SMILES: CCc1cccc(-n2nnn(C)c2=O)c1COc1ccc(-c2ccccc2OC)c(C)n1 [Present Compound 17]
- area of lesion spots on the treated plant relative to that on an untreated plant [1]: ≤ 30%
- area of lesion spots on the treated plant relative to that on an untreated plant [2]: ≤ 30%
- area of lesion spots on the treated plant relative to that on an untreated plant [3]: ≤ 30%

SMILES: COc1ccc(-c2ccc(OCc3c(C)cccc3-n3nnn(C)c3=O)nc2C)c(C#N)c1 [Present Compound 28]
- area of lesion spots on the treated plant relative to that on an untreated plant [1]: ≤ 30%
- area of lesion spots on the treated plant relative to that on an untreated plant [3]: ≤ 30%

SMILES: Cc1nc(OCc2c(C3CC3)cccc2-n2nnn(C)c2=O)ccc1-c1ccccc1 [Present Compound 30, 1-[2-(5-phenyl-6-methyl-pyridin-2-yloxymethyl)-3-cyclopropylphenyl]-4-methyl-1,4-dihydrotetrazol-5-one]
- area of lesion spots on the treated plant relative to that on an untreated plant [1]: ≤ 30%
- area of lesion spots on the treated plant relative to that on an untreated plant [2]: ≤ 30%
- area of lesion spots on the treated plant relative to that on an untreated plant [3]: ≤ 30%

SMILES: COc1ccc(-c2ccc(OCc3c(C4CC4)cccc3-n3nnn(C)c3=O)nc2C)cc1 [Present Compound 31]
- area of lesion spots on the treated plant relative to that on an untreated plant [1]: ≤ 30%
- area of lesion spots on the treated plant relative to that on an untreated plant [2]: ≤ 30%
- area of lesion spots on the treated plant relative to that on an untreated plant [3]: ≤ 30%

SMILES: COc1ccccc1-c1ccc(OCc2c(C3CC3)cccc2-n2nnn(C)c2=O)nc1C [Present Compound 32]
- area of lesion spots on the treated plant relative to that on an untreated plant [1]: ≤ 30%
- area of lesion spots on the treated plant relative to that on an untreated plant [2]: ≤ 30%
- area of lesion spots on the treated plant relative to that on an untreated plant [3]: ≤ 30%

SMILES: Cc1cccc(-n2nnn(C)c2=O)c1COc1nc(C)c(-c2ccccc2)cc1Br [Present Compound 36, 1-[2-(3-bromo-5-phenyl-6-methyl-pyridin-2-yloxymethyl)-3-methylphenyl]-4-methyl-1,4-dihydrotetrazol-5-one]
- area of lesion spots on the treated plant relative to that on an untreated plant [1]: ≤ 30%
- area of lesion spots on the treated plant relative to that on an untreated plant [3]: ≤ 30%

SMILES: Cc1cccc(-c2ccc(OCc3c(C)cccc3-n3nnn(C)c3=O)nc2C)n1 [Present Compound 45]
- area of lesion spots on the treated plant relative to that on an untreated plant [1]: ≤ 30%
- area of lesion spots on the treated plant relative to that on an untreated plant [3]: ≤ 30%

SMILES: Cc1cccc(-n2nnn(C)c2=O)c1COc1ccc(Oc2ccccc2)c(C)n1 [Present Compound 64]
- area of lesion spots on the treated plant relative to that on an untreated plant [1]: ≤ 30%

SMILES: Cc1cc(-c2ccc(C#N)cn2)c(C)nc1OCc1c(C)cccc1-n1nnn(C)c1=O [Present Compound 65]
- area of lesion spots on the treated plant relative to that on an untreated plant [1]: ≤ 30%

SMILES: Cc1cc(-c2cnccn2)c(C)nc1OCc1c(C)cccc1-n1nnn(C)c1=O [Present Compound 66]
- area of lesion spots on the treated plant relative to that on an untreated plant [1]: ≤ 30%

SMILES: Cc1cc(-c2ccc(C(F)(F)F)cn2)c(C)nc1OCc1c(C)cccc1-n1nnn(C)c1=O [Present Compound 67]
- area of lesion spots on the treated plant relative to that on an untreated plant [1]: ≤ 30%

SMILES: Cc1cc(-c2ccc(Cl)nn2)c(C)nc1OCc1c(C)cccc1-n1nnn(C)c1=O [Present Compound 68]
- area of lesion spots on the treated plant relative to that on an untreated plant [1]: ≤ 30%

SMILES: COc1ccccc1-c1ccc(OCc2c(OC)cccc2-n2nnn(C)c2=O)nc1C [Present Compound 69, 1-[2-{5-(2-methoxyphenyl)-6-methyl-pyridin-2-yloxymethyl}-3-methoxyphenyl]-4-methyl-1,4-dihydrotetrazol-5-one]
- area of lesion spots on the treated plant relative to that on an untreated plant [1]: ≤ 30%

SMILES: COc1cccc(-n2nnn(C)c2=O)c1COc1ccc(-c2ccccc2C#N)c(C)n1 [Present Compound 70]
- area of lesion spots on the treated plant relative to that on an untreated plant [1]: ≤ 30%

SMILES: COc1cccc(-c2cc(C)c(OCc3c(C)cccc3-n3nnn(C)c3=O)nc2C)n1 [Present Compound 71]
- area of lesion spots on the treated plant relative to that on an untreated plant [1]: ≤ 30%

SMILES: Cc1ccc(-c2cc(C)c(OCc3c(C)cccc3-n3nnn(C)c3=O)nc2C)cn1 [Present Compound 72]
- area of lesion spots on the treated plant relative to that on an untreated plant [1]: ≤ 30%

SMILES: Cc1cc(-c2ccc(Cl)cn2)c(C)nc1OCc1c(C)cccc1-n1nnn(C)c1=O [Present Compound 73]
- area of lesion spots on the treated plant relative to that on an untreated plant [1]: ≤ 30%

SMILES: Cc1cc(-c2ncccn2)c(C)nc1OCc1c(C)cccc1-n1nnn(C)c1=O [Present Compound 74]
- area of lesion spots on the treated plant relative to that on an untreated plant [1]: ≤ 30%

SMILES: CCc1cccc(-c2cc(C)c(OCc3c(C)cccc3-n3nnn(C)c3=O)nc2C)n1 [Present Compound 75]
- area of lesion spots on the treated plant relative to that on an untreated plant [1]: ≤ 30%

SMILES: Cc1cc(-c2ncc(Cl)cn2)c(C)nc1OCc1c(C)cccc1-n1nnn(C)c1=O [Present Compound 76]
- area of lesion spots on the treated plant relative to that on an untreated plant [1]: ≤ 30%

SMILES: Cc1cc(-c2ncc(F)cn2)c(C)nc1OCc1c(C)cccc1-n1nnn(C)c1=O [Present Compound 77]
- area of lesion spots on the treated plant relative to that on an untreated plant [1]: ≤ 30%

SMILES: Cc1cc(-c2ncc(Br)cn2)c(C)nc1OCc1c(C)cccc1-n1nnn(C)c1=O [Present Compound 78]
- area of lesion spots on the treated plant relative to that on an untreated plant [1]: ≤ 30%

SMILES: Cc1cc(-c2ccn(C)n2)c(C)nc1OCc1c(C)cccc1-n1nnn(C)c1=O [Present Compound 79]
- area of lesion spots on the treated plant relative to that on an untreated plant [1]: ≤ 30%

SMILES: Cc1ccn(-c2cc(C)c(OCc3c(C)cccc3-n3nnn(C)c3=O)nc2C)n1 [Present Compound 80, 1-[2-{2,6-dimethyl-5-(3-methylpyrazol-1-yl)pyridin-2-yloxymethyl}-3-methylphenyl]-4-methyl-1,4-dihydrotetrazol-5-one]
- area of lesion spots on the treated plant relative to that on an untreated plant [1]: ≤ 30%

SMILES: CCc1cccc(-n2nnn(C)c2=O)c1COc1nc(C)c(-c2ncc(F)cn2)cc1C [Present Compound 82]
- area of lesion spots on the treated plant relative to that on an untreated plant [1]: ≤ 30%

SMILES: COc1cccc(-n2nnn(C)c2=O)c1COc1nc(C)c(-c2ncc(F)cn2)cc1C [Present Compound 83]
- area of lesion spots on the treated plant relative to that on an untreated plant [1]: ≤ 30%

SMILES: COc1ccnc(-c2cc(C)c(OCc3c(C)cccc3-n3nnn(C)c3=O)nc2C)n1 [Present Compound 85]
- area of lesion spots on the treated plant relative to that on an untreated plant [1]: ≤ 30%

SMILES: COc1cc(OC)nc(-c2cc(C)c(OCc3c(C)cccc3-n3nnn(C)c3=O)nc2C)n1 [Present Compound 86]
- area of lesion spots on the treated plant relative to that on an untreated plant [1]: ≤ 30%

SMILES: Cc1cc(-c2nn(C)cc2Cl)c(C)nc1OCc1c(C)cccc1-n1nnn(C)c1=O [Present Compound 87, 1-[2-{3,6-dimethyl-5-(4-chloro-1-methylpyrazol-3-yl)pyridin-2-yloxymethyl}-3-methylphenyl]-4-methyl-1,4-dihydrotetrazol-5-one]
- area of lesion spots on the treated plant relative to that on an untreated plant [1]: ≤ 30%
